Structures were worked out from names or drawings and are uncertain.
Target: Recombinant MAPKAPK2 (MK-2) (Homo sapiens, UniProt P49137)
Assay: Determination of MK-2 IC50 (HSP-peptide phosphorylation, anion exchange resin capture assay)
Assay type: biochemical
Settings: read-out: MAPKAP2 Avg. IC50; tested form: TFA

By UniProt entry, the sequences of proteins in these tests, tags left out.
UniProt P49137, whole entry: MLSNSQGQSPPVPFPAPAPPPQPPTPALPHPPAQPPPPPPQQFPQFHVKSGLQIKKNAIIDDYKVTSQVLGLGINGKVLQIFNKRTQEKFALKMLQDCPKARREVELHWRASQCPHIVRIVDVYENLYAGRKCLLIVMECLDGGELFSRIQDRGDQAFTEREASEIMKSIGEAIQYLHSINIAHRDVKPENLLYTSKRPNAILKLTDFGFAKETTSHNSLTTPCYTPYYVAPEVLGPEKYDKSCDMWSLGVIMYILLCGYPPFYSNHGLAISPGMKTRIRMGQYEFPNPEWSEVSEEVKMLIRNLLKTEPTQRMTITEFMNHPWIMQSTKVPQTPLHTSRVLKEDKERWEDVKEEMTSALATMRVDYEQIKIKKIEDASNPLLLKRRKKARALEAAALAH

SMILES: O=C1NCCc2[nH]c(-c3ccnc(-c4cccc5cccnc45)c3)cc21
- IC50: 10.8 µM
